In publication PMC4581162:
No constants are given. Whether binding was seen depends on the method and setting. In cells and extracts the contact can be indirect. Some binding calls cover weakened binding; strength is not graded here. Sequences can lack the tags named with a protein.

T1: Promyelocytic leukemia zinc finger protein (PLZF), endogenous in KG1a cells (human (endogenous in KG1a)), Q05516
T1 chain: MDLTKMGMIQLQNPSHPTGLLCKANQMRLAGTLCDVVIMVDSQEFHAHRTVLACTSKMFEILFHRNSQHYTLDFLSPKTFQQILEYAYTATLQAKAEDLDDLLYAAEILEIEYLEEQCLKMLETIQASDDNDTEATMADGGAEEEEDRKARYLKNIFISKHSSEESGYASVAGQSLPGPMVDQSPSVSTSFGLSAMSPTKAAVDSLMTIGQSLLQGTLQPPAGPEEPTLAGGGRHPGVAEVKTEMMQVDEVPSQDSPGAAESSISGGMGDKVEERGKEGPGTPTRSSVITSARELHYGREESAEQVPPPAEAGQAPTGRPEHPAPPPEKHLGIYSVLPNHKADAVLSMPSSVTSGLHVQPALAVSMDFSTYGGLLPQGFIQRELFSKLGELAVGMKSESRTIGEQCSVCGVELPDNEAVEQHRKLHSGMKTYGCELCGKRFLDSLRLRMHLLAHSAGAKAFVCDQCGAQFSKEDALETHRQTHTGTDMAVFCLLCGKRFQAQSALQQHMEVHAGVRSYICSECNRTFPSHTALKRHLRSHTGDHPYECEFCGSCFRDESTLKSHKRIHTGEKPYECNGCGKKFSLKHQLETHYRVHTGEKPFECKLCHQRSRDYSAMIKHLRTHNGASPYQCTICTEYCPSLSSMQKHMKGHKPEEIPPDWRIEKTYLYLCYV

T2: GST-PLZF, full-length PLZF, Q05516
T2 chain: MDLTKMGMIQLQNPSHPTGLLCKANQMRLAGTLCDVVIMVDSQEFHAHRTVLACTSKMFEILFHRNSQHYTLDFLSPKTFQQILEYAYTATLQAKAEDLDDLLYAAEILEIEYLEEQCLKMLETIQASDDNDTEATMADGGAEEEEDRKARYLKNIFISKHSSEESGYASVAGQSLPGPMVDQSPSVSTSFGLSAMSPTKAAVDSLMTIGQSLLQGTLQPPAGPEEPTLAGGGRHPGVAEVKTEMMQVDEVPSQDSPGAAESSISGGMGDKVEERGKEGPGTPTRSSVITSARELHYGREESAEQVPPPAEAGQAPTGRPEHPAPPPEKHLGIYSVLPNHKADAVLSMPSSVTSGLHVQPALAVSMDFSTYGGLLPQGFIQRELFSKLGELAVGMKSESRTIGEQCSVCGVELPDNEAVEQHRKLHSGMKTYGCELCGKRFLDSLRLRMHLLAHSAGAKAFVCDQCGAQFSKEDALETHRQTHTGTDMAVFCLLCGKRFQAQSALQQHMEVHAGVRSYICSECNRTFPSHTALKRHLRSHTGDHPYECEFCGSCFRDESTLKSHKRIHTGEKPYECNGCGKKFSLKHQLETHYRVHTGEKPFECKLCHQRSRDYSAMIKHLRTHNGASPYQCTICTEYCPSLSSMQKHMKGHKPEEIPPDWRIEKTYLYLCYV


Assays:
[1] = molecular target: T1, Promyelocytic leukemia zinc finger …; experiment: co-IP; endogenous proteins from KG1a whole cell lysates (1 % NP40, 150 mM NaCl, 20 mM Tris pH 8.0); precipitated with anti-PLZF, anti-HDAC3 or anti-SIRT1 antibody for 16 h at 4 °C, protein A agarose; immunoblot; details: remark: other sources report otherwise
[2] = molecular target: T2, GST-PLZF, full-length PLZF, Q05516; experiment: pull-down; GST fusions of PLZF incubated with 35S-labeled in vitro translated HDAC3; only the target purified; details: remark: other sources report otherwise

binding [1] | binding [2] | Binder
binds |  | Histone deacetylase 3 (HDAC3), endogenous in KG1a cells, O15379 1-428 (enzyme) MAKTVAYFYDPDVGNFHYGAGHPMKPHRLALTHSLVLHYGLYKKMIVFKPYQASQHDMCRFHSEDYIDFLQRVSPTNMQGFTKSLNAFNVGDDCPVFPGLFEFCSRYTGASLQGATQLNNKICDIAINWAGGLHHAKKFEASGFCYVNDIVIGILELLKYHPRVLYIDIDIHHGDGVQEAFYLTDRVMTVSFHKYGNYFFPGTGDMYEVGAESGRYYCLNVPLRDGIDDQSYKHLFQPVINQVVDFYQPTCIVLQCGADSLGCDRLGCFNLSIRGHGECVEYVKSFNIPLLVLGGGGYTVRNVARCWTYETSLLVEEAISEELPYSEYFEYFAPDFTLHPDVSTRIENQNSRQYLDQIRQTIFENLKMLNHAPSVQIHDVPADLLTYDRTDEADAEERGPEENYSRPEAPNEFYDGDHDNDKESDVEI
 | binds | 35S-labeled HDAC3, in vitro translated, O15379 1-428 (enzyme, here or on the partner: [35S]methionine-labeled) MAKTVAYFYDPDVGNFHYGAGHPMKPHRLALTHSLVLHYGLYKKMIVFKPYQASQHDMCRFHSEDYIDFLQRVSPTNMQGFTKSLNAFNVGDDCPVFPGLFEFCSRYTGASLQGATQLNNKICDIAINWAGGLHHAKKFEASGFCYVNDIVIGILELLKYHPRVLYIDIDIHHGDGVQEAFYLTDRVMTVSFHKYGNYFFPGTGDMYEVGAESGRYYCLNVPLRDGIDDQSYKHLFQPVINQVVDFYQPTCIVLQCGADSLGCDRLGCFNLSIRGHGECVEYVKSFNIPLLVLGGGGYTVRNVARCWTYETSLLVEEAISEELPYSEYFEYFAPDFTLHPDVSTRIENQNSRQYLDQIRQTIFENLKMLNHAPSVQIHDVPADLLTYDRTDEADAEERGPEENYSRPEAPNEFYDGDHDNDKESDVEI
